In article PMC8075378:
Results are given in words; binding and its absence hold for the method and conditions named. In cells and extracts the contact can be indirect. Some entries that bind do so weakly or less than the wild type.

Sequences of proteins named here, by UniProt entry; tags and fusion partners are left off. A change or cut given only in a name is not applied to a line headed by its entry. A line that says so, or that is headed by a name, gives the form on record, which may keep a tag or linker.
UniProt Q60610: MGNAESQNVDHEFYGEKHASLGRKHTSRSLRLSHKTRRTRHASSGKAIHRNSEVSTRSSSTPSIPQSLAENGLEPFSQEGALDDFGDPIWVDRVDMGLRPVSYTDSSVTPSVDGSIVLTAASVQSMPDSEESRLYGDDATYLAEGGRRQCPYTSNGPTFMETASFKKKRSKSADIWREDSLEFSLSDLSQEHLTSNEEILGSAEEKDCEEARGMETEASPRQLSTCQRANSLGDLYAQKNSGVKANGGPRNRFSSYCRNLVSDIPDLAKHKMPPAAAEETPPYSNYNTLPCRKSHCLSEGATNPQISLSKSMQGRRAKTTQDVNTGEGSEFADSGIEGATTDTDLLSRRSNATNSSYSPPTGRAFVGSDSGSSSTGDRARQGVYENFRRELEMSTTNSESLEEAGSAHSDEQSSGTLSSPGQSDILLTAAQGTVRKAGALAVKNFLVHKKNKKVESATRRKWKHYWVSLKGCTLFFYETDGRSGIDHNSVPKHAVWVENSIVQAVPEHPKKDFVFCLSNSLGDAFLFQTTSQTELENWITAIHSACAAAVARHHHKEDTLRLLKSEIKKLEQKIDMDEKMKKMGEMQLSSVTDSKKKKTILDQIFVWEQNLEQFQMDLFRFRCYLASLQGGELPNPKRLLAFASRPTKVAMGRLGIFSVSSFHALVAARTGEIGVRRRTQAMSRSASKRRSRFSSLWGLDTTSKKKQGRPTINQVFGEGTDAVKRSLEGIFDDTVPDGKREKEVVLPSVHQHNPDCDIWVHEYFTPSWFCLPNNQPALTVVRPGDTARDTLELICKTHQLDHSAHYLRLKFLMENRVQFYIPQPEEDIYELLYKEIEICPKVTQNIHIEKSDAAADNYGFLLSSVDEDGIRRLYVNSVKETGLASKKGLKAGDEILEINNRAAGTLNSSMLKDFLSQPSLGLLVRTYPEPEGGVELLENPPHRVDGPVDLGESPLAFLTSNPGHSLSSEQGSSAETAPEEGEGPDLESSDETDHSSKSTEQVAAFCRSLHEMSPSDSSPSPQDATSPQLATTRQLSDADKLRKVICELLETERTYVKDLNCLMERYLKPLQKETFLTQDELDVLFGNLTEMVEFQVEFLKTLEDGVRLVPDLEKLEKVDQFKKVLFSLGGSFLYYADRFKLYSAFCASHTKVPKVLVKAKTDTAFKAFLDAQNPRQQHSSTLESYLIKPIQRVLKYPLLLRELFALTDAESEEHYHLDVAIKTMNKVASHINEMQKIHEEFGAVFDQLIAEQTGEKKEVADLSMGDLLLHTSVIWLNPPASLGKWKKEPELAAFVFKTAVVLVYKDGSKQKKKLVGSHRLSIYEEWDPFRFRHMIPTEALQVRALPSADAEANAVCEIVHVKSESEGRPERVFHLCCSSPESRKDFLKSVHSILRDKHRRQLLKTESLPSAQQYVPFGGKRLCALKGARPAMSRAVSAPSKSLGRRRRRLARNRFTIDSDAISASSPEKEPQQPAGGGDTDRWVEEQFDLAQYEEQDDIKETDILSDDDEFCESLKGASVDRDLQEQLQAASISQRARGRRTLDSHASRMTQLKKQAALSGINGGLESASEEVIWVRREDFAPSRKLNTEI
Tiam1-AA, full-length Tiam1 with two point mutations in the βTRCP phospho-degron, HA-tagged (Q60610, form named): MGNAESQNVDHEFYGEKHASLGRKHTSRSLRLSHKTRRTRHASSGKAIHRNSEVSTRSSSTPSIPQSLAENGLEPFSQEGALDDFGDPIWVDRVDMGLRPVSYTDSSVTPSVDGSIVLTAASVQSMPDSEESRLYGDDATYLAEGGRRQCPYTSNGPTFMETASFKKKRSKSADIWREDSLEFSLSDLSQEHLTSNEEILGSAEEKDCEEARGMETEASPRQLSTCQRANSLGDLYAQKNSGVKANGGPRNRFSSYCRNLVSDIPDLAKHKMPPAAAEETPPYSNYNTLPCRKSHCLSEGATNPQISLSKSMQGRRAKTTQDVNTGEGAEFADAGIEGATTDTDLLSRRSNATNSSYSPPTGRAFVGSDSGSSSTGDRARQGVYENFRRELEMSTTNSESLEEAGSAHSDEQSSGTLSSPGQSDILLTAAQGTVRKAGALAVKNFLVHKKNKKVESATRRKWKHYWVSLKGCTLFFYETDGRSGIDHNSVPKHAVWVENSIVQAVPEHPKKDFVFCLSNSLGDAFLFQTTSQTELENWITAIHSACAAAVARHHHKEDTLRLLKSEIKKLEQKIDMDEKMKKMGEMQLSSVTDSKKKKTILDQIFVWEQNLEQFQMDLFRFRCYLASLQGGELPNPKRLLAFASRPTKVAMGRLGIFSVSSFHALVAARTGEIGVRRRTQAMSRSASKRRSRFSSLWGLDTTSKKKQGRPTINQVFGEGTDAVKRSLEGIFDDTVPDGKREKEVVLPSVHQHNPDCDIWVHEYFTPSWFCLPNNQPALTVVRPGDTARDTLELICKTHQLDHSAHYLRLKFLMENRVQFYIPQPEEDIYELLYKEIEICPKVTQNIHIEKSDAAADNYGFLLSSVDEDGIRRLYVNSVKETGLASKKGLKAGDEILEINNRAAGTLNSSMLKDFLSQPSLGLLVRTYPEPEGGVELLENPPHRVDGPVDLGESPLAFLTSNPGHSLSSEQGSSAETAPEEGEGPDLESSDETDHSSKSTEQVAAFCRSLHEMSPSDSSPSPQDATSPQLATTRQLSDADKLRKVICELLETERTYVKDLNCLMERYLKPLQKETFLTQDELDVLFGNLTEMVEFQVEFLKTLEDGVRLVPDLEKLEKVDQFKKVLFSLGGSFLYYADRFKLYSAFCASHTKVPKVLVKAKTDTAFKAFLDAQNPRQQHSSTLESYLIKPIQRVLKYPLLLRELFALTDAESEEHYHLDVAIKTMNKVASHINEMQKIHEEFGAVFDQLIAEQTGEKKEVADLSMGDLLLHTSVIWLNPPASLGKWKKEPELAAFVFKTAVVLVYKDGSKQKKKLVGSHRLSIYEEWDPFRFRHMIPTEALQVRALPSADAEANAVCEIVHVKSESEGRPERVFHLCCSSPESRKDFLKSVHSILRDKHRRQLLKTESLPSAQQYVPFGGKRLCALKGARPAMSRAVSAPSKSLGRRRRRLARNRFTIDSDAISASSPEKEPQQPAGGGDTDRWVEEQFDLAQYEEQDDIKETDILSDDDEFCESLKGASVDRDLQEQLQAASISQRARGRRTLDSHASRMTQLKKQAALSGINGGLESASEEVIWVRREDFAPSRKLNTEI
UniProt Q9Y297: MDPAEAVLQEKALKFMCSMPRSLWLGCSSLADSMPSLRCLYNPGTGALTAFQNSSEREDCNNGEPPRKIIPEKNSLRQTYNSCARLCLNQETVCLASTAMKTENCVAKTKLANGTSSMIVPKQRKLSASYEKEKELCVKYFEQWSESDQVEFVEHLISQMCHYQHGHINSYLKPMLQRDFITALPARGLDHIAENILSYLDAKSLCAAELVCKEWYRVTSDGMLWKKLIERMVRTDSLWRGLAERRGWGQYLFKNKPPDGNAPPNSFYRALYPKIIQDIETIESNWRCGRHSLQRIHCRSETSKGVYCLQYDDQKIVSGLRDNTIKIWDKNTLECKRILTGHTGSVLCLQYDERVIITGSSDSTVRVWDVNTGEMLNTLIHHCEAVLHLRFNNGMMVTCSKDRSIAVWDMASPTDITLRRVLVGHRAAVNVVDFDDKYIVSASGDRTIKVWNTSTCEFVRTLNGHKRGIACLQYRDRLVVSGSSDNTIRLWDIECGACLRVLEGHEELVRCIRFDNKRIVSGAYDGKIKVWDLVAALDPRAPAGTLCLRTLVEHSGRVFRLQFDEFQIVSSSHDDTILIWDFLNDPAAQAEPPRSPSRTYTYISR

How the values were obtained:
[1] = target: Tiam1-AA, full-length Tiam1 with two point mutations in the βTRCP phospho-degron, HA-tagged (mouse) (UniProt Q60610); assay: co-IP; immunoprecipitation of HA-tagged Tiam1 constructs (doxycycline-induced) from HCT116 lysates, western blot for endogenous βTRCP; performed as described previously (Whalley et al., 2015)
[2] = target: wild-type Tiam1 (mouse), HA-tagged, doxycycline-inducible (mouse) (UniProt Q60610); assay: as above

binding [1]: no binding
binding [2]: binds
Substance: βTRCP (F-box/WD repeat-containing protein 1A), endogenous (from UniProt Q9Y297 1-605)
